According to publication PMC8194061:
These are yes or no findings as the source states them, for the method shown. In cells and extracts the contact can be indirect. Some binding calls cover weakened binding; strength is not graded here.

The chains behind the UniProt entries cited, without tags or fusion partners.
UniProt Q05BC3: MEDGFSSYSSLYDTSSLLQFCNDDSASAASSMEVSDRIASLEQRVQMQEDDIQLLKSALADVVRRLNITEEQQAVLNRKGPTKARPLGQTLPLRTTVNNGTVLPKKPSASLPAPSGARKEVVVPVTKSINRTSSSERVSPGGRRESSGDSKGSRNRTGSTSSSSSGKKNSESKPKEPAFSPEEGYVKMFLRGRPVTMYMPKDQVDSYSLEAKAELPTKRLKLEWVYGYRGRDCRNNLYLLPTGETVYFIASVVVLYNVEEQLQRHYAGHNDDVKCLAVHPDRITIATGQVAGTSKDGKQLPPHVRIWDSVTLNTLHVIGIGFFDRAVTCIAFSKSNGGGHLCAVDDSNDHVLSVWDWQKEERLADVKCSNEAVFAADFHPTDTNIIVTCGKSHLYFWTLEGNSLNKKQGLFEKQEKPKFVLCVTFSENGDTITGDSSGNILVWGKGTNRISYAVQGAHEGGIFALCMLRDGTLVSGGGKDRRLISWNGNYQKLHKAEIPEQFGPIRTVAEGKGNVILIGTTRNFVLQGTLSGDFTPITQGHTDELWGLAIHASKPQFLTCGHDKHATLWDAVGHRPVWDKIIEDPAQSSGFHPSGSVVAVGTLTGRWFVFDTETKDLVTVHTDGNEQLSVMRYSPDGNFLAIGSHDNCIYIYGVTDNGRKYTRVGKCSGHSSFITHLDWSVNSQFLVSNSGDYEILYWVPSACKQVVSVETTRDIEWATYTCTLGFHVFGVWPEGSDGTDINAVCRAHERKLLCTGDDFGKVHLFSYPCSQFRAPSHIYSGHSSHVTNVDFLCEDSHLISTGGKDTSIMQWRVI

Molecular target: EML1-3DDK fusion protein (echinoderm microtubule associated protein like 1, mouse) (mouse) (UniProt Q05BC3)
Experiment: co-IP; EML1-IP product from HEK293 cells expressing EML1-3DDK, blotted for NUDC and EML4

- binding: binds
B1: EML4 (protein, UniProt Q9HC35 1-981)
chain: MDGFAGSLDDSISAASTSDVQDRLSALESRVQQQEDEITVLKAALADVLRRLAISEDHVASVKKSVSSKGQPSPRAVIPMSCITNGSGANRKPSHTSAVSIAGKETLSSAAKSGTEKKKEKPQGQREKKEESHSNDQSPQIRASPSPQPSSQPLQIHRQTPESKNATPTKSIKRPSPAEKSHNSWENSDDSRNKLSKIPSTPKLIPKVTKTADKHKDVIINQEGEYIKMFMRGRPITMFIPSDVDNYDDIRTELPPEKLKLEWAYGYRGKDCRANVYLLPTGKIVYFIASVVVLFNYEERTQRHYLGHTDCVKCLAIHPDKIRIATGQIAGVDKDGRPLQPHVRVWDSVTLSTLQIIGLGTFERGVGCLDFSKADSGVHLCIIDDSNEHMLTVWDWQKKAKGAEIKTTNEVVLAVEFHPTDANTIITCGKSHIFFWTWSGNSLTRKQGIFGKYEKPKFVQCLAFLGNGDVLTGDSGGVMLIWSKTTVEPTPGKGPKGVYQISKQIKAHDGSVFTLCQMRNGMLLTGGGKDRKIILWDHDLNPEREIEVPDQYGTIRAVAEGKADQFLVGTSRNFILRGTFNDGFQIEVQGHTDELWGLATHPFKDLLLTCAQDRQVCLWNSMEHRLEWTRLVDEPGHCADFHPSGTVVAIGTHSGRWFVLDAETRDLVSIHTDGNEQLSVMRYSIDGTFLAVGSHDNFIYLYVVSENGRKYSRYGRCTGHSSYITHLDWSPDNKYIMSNSGDYEILYWDIPNGCKLIRNRSDCKDIDWTTYTCVLGFQVFGVWPEGSDGTDINALVRSHNRKVIAVADDFCKVHLFQYPCSKAKAPSHKYSAHSSHVTNVSFTHNDSHLISTGGKDMSIIQWKLVEKLSLPQNETVADTTLTKAPVSSTESVIQSNTPTPPPSQPLNETAEEESRISSSPTLLENSLEQTVEPSEDHSEEESEEGSGDLGEPLYEEPCNEISKEQAKATLLEDQQDPSPSS
